Experimental data from patent US20220033516A1.
Substitutions are numbered along the chain they refer to. These are yes or no findings as the source states them, for the method shown.

B1: MHR0009/CD3 (bispecific antibody, human IgG1, kappa, N297A)
heavy 1: QSLEESGGRLVTPGTPLTLTCKASGFSLSSYAMIWVRQAPGKGLESIGMVYIHSGGTYYASWAKGRFTISKTSTTVDLKITSPTTEDTATYFCARYNGGGSGTDLWGPGTLVTVSSASTKGPSVFPLAPSSRSTSESTAALGCLVKDYFPEPVTVSWNSGALTSGVHTFPAVLQSSGLYSLSSVVTVPSSSLGTKTYTCNVDHKPSNTKVDKRVEPKSCDKTHTCPPCPAPELRRGPKVFLFPPKPKDTLMISRTPEVTCVVVDVSQEDPEVQFNWYVDGVEVHNAKTKPREEQFASTYRVVSVLTVLHQDWLNGKEYKCKVSNKGLPSSIEKTISKAKGQPREPQVYTLPPSREEMTKNQVSLTCLVKGFYPSDIAVEWESNGQPENNYKTTPPYLDSDGSFFLYSKLTVDKSRWQEGNVFSCSVMHEALHNHYTQESLSLSP
light 1: DIVMTQTPSSVSEPVGGTVTIKCQASQSIYSYLSWYQQKPGQRPKLLIYYASTLASGVPSRFKGSGSGTQFTLTISDLECADAATYYCQNNYGSDSNIYGIAFGGGTKVEIKRTVAAPSVFIFPPSDEQLKSGTASVVCLLNNFYPREAKVQWKVDNALQSGNSQESVTEQDSKDCTYSLSSTLTLSKADYEKHKVYACEVTHQGLSSPVTKSFNRGEC
heavy 2: QVQLVESGGGVVQPGGSLRLSCAASGFTFSNAWMHWVRQAPGKGLEWVAQIKDKSQNYATYVAESVKGRFTISRADSKNSIYLQMNSLKTEDTAVYYCRYVHYAAGYGVDIWGQGTTVTVSSASTKGPSVFPLAPSSRSTSESTAALGCLVKDYFPEPVTVSWNSGALTSGVHTFPAVLQSSGLYSLSSVVTVPSSSLGTKTYTCNVDHKPSNTKVDKRVEPKSCDKTHTCPPCPAPELRRGPKVFLFPPKPKDTLMISRTPEVTCVVVDVSQEDPEVQFNWYVDGVEVHNAKTKPREEQFASTYRVVSVLTVLHQDWLNGKEYKCKVSNKGLPSSIEKTISKAKGQPREPQVYTLPPSRKEMTKNQVSLTCLVKGFYPSDIAVEWESNGQPENNYKTTPPYLDSDGSFFLYSKLTVDKSRWQEGNVFSCSVMHEALHNHYTQKSLSLSP
light 2: DIVMTQSPLSLPVTPGEPASISCRSSQPLVHSNRNTYLHWYQQKPGQAPRLLIYKVSNRFSGVPDRFSGSGSGTDFTLKISRVEAEDVGVYYCGQGTQVPYTFGQGTKLEIKRTVAAPSVFIFPPSDEQLKSGTASVVCLLNNFYPREAKVQWKVDNALQSGNSQESVTEQDSKDSTYSLSSTLTLSKADYEKHKVYACEVTHQGLSSPVTKSFNRGEC
B2: MHR0010/CD3 (bispecific antibody, human IgG1, kappa, N297A)
heavy 1: QSVEESGGRLVTPGTPLTLTCTVSGFSLSRYAMSWVRQAPGKGLEWIGIIVSSSGSTYYATWATGRFTISKTSTTVDLKITSPTTEDTATYFCARIRGYDNIGYGYPWFYYFNLWGPGTLVTVSSASTKGPSVFPLAPSSRSTSESTAALGCLVKDYFPEPVTVSWNSGALTSGVHTFPAVLQSSGLYSLSSVVTVPSSSLGTKTYTCNVDHKPSNTKVDKRVEPKSCDKTHTCPPCPAPELRRGPKVFLFPPKPKDTLMISRTPEVTCVVVDVSQEDPEVQFNWYVDGVEVHNAKTKPREEQFASTYRVVSVLTVLHQDWLNGKEYKCKVSNKGLPSSIEKTISKAKGQPREPQVYTLPPSREEMTKNQVSLTCLVKGFYPSDIAVEWESNGQPENNYKTTPPYLDSDGSFFLYSKLTVDKSRWQEGNVFSCSVMHEALHNHYTQESLSLSP
light 1: DVVMTQTPASVEAAVGGTVTIKCQASQSISSYLAWYQQKPGQPPKLLIYDASDLASGVPSRFKGSGSGTQFTLTISDLECADAATYYCQSYYYSSSSSYGFAFGGGTKVEIKRTVAAPSVFIFPPSDEQLKSGTASVVCLLNNFYPREAKVQWKVDNALQSGNSQESVTEQDSKDCTYSLSSTLTLSKADYEKHKVYACEVTHQGLSSPVTKSFNRGEC
heavy 2: B1 heavy 2
light 2: B1 light 2
B3: MHR0016/CD3 (bispecific antibody, human IgG1, kappa, N297A)
heavy 1: QSVEESGGRLVTPGTPLTLTCTVSGFSLSSNAISWVRQAPGKGLEYIGIISSSGSTYYANWAKGRFTISKTSSTTVDLKMTSATTEDTATYFCARGVDIYGHAYATPYGMDLWGPGTLVTVSSASTKGPSVFPLAPSSRSTSESTAALGCLVKDYFPEPVTVSWNSGALTSGVHTFPAVLQSSGLYSLSSVVTVPSSSLGTKTYTCNVDHKPSNTKVDKRVEPKSCDKTHTCPPCPAPELRRGPKVFLFPPKPKDTLMISRTPEVTCVVVDVSQEDPEVQFNWYVDGVEVHNAKTKPREEQFASTYRVVSVLTVLHQDWLNGKEYKCKVSNKGLPSSIEKTISKAKGQPREPQVYTLPPSREEMTKNQVSLTCLVKGFYPSDIAVEWESNGQPENNYKTTPPYLDSDGSFFLYSKLTVDKSRWQEGNVFSCSVMHEALHNHYTQESLSLSP
light 1: EVVMTQTPASVSEPVGGTVTIKCQASQSISSYLSWYQQKPGQPPKLLIYYSSTLASGVPSRFKGSGSGTEFTLTISDLECADAATYYCQSNYGSSSSSYEDTFGGGTKVEIKRTVAAPSVFIFPPSDEQLKSGTASVVCLLNNFYPREAKVQWKVDNALQSGNSQESVTEQDSKDCTYSLSSTLTLSKADYEKHKVYACEVTHQGLSSPVTKSFNRGEC
heavy 2: B1 heavy 2
light 2: B1 light 2
B4: MHR0019/CD3 (bispecific antibody, human IgG1, kappa, N297A)
heavy 1: QSVEESGGRLVAPGTPLTLTCTVSGIDLSSDAMAWVRQAPGKGLEYIGIISSSGSTYYASWAKGRFTISKTSTTVDLKITSPTTEDTATYFCARGVDIYGHAYATPYGMDLWGPGTLVTVSSASTKGPSVFPLAPSSRSTSESTAALGCLVKDYFPEPVTVSWNSGALTSGVHTFPAVLQSSGLYSLSSVVTVPSSSLGTKTYTCNVDHKPSNTKVDKRVEPKSCDKTHTCPPCPAPELRRGPKVFLFPPKPKDTLMISRTPEVTCVVVDVSQEDPEVQFNWYVDGVEVHNAKTKPREEQFASTYRVVSVLTVLHQDWLNGKEYKCKVSNKGLPSSIEKTISKAKGQPREPQVYTLPPSREEMTKNQVSLTCLVKGFYPSDIAVEWESNGQPENNYKTTPPYLDSDGSFFLYSKLTVDKSRWQEGNVFSCSVMHEALHNHYTQESLSLSP
light 1: B3 light 1 with S51A, A81D
heavy 2: B1 heavy 2
light 2: B1 light 2
B5: MHR0060/CD3 (bispecific antibody, human IgG1, kappa, N297A)
heavy 1: B4 heavy 1 with A12T, I26F, D27S, D31Y, A34G, S60N, A102P
light 1: B3 light 1 with S12E, E13V, P14A, S34A, S51A, A81D
heavy 2: B1 heavy 2
light 2: B1 light 2

Target: recombinant human wild-type HER2 ECD with twin Strep tag (human) (UniProt P04626)
Experiment: SPR, Biacore 8K, 37 C, antibody captured by anti-human Fc, antigen 25-400 nM

binding, no binding (tested: 400 nM):
B1
B2
B3
B4
B5
